Laboratory results as given in patent EP2918680A1.
These are yes or no findings as the source states them, for the method shown. Some entries that bind do so weakly or less than the wild type.

Chains of the proteins cited; added tags and fusions are not shown. Residues count along the entry.
UniProt P00772, residues 27-266: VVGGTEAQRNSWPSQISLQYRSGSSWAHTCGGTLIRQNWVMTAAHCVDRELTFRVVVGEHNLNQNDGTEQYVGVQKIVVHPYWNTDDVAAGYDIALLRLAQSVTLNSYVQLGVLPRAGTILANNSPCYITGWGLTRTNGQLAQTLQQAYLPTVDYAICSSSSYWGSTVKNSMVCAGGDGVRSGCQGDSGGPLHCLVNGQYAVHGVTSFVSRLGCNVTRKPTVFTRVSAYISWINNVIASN
UniProt P01009, residues 25-418: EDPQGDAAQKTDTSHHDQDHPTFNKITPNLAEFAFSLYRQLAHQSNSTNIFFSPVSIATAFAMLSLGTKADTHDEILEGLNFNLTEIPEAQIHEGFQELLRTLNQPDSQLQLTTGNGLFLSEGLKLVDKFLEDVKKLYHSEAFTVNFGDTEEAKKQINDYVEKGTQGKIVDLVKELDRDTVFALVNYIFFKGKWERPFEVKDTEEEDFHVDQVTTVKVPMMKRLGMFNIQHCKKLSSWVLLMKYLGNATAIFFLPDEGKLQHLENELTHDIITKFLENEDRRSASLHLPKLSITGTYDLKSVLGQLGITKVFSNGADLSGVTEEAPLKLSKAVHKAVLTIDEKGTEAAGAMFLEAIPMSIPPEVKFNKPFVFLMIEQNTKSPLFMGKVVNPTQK

Molecular target: porcine elastase (porcine) (UniProt P00772)
Test: band shift assay (SDS-PAGE and Western blot) after adding porcine elastase

| binding | Substance |
| --- | --- |
| binds | human plasma-derived α1-antitrypsin (pAAT) (from UniProt P01009 25-418) |
| binds | OsrAAT (recombinant human α1-antitrypsin expressed in rice endosperm, Oryza sativa recombinant AAT) (from UniProt P01009 25-418) |
